No constants are given. Whether binding was seen depends on the method and setting. Where a sequence is shown, tags or fusion partners need not be part of it. One block for each binder: values may come before it.
How the values were obtained:
[1] = target: mCherry-tagged SgII (SgII-mCherry) (mouse) (UniProt Q03517); test: AUC; sedimentation velocity, 4 °C, 45000 rpm, absorbance at 280 nm, SEDFIT; pH 5.5; self-association; both purified
[2] = target: secretogranin II (SgII), His-mCherry tag removed (mouse) (UniProt Q03517); test: cryo-EM micrographs; purified SgII under acidic conditions (pH 5.5); no filaments seen; both purified

binding [1]: no binding (condition: at pH 5.5)
B1: mCherry-tagged SgII (SgII-mCherry) (protein, UniProt Q03517 31-617)
chain: QRNQLLQKEPDLRLENVQKFPSPEMIRALEYIEKLRQQAHREESSPDYNPYQGVSVPLQLKENGEESHLAESSRDALSEDEWMRIILEALRQAENEPPSAPKENKPYALNLEKNFPVDTPDDYETQQWPERKLKHMRFPLMYEENSRENPFKRTNEIVEEQYTPQSLATLESVFQELGKLTGPSNQKRERVDEEQKLYTDDEDDVYKTNNIAYEDVVGGEDWSPIEEKIETQTQEEVRDSKENTEKNEQINEEMKRSGQLGLPDEENRRESKDQLSEDASKVITYLRRLVNAVGSGRSQSGPNGDRAARLLQKPLDSQSIYQLIEISRNLQIPPEDLIEMLKAGEKPNGLVEPEQDLELAVDLDDIPEADLDRPDMFQSKMLSKGGYPKAPGRGMVEALPDGLSVEDILNVLGMENVVNQKSPYFPNQYSQDKALMRLPYGPGKSRANQIPKVAWIPDVESRQAPYENLNDQELGEYLARMLVKYPELLNTNQLKRVPSPVSSEDDLQEEEQLEQAIKEHLGPGSSQEMERLAKVSKRIPVGSLKNEDTPNRQYLDEDMLLKVLEYLNQEQAEQGREHLAKRAMENM

B2: secretogranin II (SgII), His-mCherry tag removed (protein, UniProt Q03517 31-617)
chain: B1 chain
binding [2]: no binding (condition: under acidic conditions (pH 5.5))
